Results are given in words; binding and its absence hold for the method and conditions named. A result given as binding can be weak or reduced; the word gives no strength.

This experiment concerns the target monkey DLL3 protein (hybridoma screening ELISA) (monkey). Description: ELISA, hybridoma supernatant. Background: In an ELISA, binding on a coated surface is turned into a signal by an enzyme label.

B1: mAb100 (antibody, V domains shown)
VH: EVQLVESGGGLVKPGGSLKLSCAASGFTFSDSGMHWIRQAPEKGLEWVAYISSGSSTIHYADTVKGRFTISRDNAKNTLFLQMTSLRSEDTAMYYCASPLYYYGRSYNAVAYWGQGTSVTVSS
VL: DIQMNQSPSSLSASLGDTITITCHASQNINVWLSWYQQKPGNIPKLLIYKASDLHTGVPSRFSGSGSGTGFTLTISSLQPEDIATYYCQQGQSYPLTFGGGTKLEIK
As for B1, the binding entry is “binds”.

Values taken from US20250057968A1, “ANTI-DLL3 ANTIBODY AND PHARMACEUTICAL USE THEREOF, AND ANTIBODY-DRUG CONJUGATE CONTAINING ANTI-DLL3 ANTIBODY” (Jiangsu Hengrui Pharmaceuticals Co., Ltd., priority 2021, published 2025).
